The list shows a part of the results, in another mix than the full data. Calls are pooled over several reports, among them a noisy single-well screen. The list shows a part of the results. The list shows a part of the results.
Assays:
Settings in all cases: stereoisomer not certain
OR14J1 (Homo sapiens) = molecular target: T1, OR14J1 (Homo sapiens) (UniProt Q9UGF5)
T1 sequence (whole entry): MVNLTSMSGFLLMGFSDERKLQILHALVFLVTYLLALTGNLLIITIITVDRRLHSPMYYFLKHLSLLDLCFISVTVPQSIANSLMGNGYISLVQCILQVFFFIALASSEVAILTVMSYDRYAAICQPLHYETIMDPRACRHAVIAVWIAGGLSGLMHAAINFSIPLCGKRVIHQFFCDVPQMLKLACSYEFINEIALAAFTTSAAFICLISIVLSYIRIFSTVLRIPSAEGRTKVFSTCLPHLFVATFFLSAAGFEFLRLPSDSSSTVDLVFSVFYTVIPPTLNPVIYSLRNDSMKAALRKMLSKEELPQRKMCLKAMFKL
How it was run: (§1)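 Assay methods differ from source to source, frequently being transient luciferase assays in mammalian cell lines. For each receptor–molecule pair, the label responsive (active) applies when the original authors judged the measured signal statistically different from baseline, and non-responsive (inactive) applies otherwise.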

Chains of the proteins cited; added tags and fusions are not shown. A change or cut given only in a name is not applied to a line headed by its entry. Chains listed by the source or under a name are the forms on record and can include a tag or linker.
UniProt Q8NGT2: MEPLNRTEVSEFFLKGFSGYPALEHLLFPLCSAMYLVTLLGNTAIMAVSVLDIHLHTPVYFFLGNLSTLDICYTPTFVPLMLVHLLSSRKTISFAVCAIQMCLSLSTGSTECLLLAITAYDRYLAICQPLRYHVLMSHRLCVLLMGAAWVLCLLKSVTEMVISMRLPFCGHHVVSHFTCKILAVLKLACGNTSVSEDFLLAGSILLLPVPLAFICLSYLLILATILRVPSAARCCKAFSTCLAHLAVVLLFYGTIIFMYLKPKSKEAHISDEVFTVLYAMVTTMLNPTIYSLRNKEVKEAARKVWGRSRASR
UniProt Q8NHC5: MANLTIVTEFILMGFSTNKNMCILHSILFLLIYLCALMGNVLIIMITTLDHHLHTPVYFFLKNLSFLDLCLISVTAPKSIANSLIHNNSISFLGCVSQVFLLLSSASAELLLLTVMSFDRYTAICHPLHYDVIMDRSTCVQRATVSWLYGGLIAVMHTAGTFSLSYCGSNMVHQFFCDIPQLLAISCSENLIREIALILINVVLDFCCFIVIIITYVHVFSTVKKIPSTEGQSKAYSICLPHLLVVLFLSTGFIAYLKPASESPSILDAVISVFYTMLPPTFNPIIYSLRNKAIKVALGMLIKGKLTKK
UniProt Q8NHC7: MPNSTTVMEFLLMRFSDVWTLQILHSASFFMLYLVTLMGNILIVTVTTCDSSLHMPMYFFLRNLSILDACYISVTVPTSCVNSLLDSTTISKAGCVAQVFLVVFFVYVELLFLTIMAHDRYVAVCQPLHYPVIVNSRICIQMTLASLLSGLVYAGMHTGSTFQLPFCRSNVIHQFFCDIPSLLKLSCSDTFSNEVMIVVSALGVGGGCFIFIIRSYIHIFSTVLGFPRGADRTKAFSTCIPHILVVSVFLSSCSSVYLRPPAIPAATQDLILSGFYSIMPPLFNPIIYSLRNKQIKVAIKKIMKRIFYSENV
UniProt Q8NGZ2: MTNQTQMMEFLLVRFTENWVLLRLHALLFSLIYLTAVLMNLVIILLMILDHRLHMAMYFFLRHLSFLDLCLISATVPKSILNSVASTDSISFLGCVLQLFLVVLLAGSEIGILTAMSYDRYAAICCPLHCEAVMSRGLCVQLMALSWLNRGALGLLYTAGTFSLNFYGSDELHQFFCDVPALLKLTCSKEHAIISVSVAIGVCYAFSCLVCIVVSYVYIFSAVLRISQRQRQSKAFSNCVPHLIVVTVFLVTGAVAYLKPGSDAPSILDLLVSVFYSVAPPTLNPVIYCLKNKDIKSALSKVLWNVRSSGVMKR
UniProt Q8NHC6, as listed by the source: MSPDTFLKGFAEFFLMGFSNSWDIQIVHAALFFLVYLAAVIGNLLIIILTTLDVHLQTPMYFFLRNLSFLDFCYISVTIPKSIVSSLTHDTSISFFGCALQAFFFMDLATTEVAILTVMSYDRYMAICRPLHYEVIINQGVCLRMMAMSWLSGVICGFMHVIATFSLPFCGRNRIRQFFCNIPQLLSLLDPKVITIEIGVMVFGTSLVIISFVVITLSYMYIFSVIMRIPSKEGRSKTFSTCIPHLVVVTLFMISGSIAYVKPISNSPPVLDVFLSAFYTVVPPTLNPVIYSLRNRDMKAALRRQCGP
OR1A1 D111S, as listed by the source, stated change not applied: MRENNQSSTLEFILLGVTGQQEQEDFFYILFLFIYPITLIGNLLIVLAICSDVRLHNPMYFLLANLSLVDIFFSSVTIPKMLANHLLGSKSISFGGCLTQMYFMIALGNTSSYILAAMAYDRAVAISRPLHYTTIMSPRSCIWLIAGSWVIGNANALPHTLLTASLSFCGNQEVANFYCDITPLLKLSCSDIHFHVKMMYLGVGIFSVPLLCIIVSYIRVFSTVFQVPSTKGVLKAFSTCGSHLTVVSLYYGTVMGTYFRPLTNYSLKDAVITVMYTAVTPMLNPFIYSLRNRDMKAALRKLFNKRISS
OR1A1 A106G, as listed by the source, stated change not applied: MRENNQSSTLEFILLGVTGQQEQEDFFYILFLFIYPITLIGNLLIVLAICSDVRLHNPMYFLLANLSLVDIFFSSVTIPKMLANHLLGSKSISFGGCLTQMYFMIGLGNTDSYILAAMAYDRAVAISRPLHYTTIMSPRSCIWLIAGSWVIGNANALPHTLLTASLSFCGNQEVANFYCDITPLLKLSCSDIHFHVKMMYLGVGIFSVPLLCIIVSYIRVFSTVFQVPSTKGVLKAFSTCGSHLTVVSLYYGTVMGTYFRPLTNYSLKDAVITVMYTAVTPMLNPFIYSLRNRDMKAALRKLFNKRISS
OR1A1 A106T, as listed by the source, stated change not applied: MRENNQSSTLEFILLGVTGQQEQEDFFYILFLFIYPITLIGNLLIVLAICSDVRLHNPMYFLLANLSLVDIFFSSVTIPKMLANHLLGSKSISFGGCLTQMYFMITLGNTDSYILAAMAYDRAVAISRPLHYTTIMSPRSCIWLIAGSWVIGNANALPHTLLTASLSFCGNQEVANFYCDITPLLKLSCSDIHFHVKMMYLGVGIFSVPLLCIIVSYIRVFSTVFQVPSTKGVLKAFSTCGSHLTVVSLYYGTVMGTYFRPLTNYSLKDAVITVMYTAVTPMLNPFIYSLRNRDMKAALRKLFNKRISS
OR1A1 D111A, as listed by the source, stated change not applied: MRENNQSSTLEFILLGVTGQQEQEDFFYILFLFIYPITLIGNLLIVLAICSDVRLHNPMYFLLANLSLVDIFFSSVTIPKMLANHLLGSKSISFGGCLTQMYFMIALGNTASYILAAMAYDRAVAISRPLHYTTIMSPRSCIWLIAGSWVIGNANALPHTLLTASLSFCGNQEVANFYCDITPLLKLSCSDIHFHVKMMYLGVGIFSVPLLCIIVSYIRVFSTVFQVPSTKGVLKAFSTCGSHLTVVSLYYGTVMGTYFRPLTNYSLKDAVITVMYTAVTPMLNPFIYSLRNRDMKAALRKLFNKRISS
OR1A1 G108A, as listed by the source, stated change not applied: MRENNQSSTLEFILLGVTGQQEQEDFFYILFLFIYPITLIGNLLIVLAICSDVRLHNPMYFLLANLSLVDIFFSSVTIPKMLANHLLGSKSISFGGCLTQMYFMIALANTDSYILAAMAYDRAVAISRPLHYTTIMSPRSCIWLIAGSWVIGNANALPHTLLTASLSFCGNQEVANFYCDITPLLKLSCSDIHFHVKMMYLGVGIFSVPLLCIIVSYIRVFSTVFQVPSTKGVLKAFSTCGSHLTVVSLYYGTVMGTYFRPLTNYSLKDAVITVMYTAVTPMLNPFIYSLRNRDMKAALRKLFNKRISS

OR1A1 (Homo sapiens) = molecular target: T2, OR1A1 (Homo sapiens) (UniProt Q9P1Q5)
T2 sequence (whole entry): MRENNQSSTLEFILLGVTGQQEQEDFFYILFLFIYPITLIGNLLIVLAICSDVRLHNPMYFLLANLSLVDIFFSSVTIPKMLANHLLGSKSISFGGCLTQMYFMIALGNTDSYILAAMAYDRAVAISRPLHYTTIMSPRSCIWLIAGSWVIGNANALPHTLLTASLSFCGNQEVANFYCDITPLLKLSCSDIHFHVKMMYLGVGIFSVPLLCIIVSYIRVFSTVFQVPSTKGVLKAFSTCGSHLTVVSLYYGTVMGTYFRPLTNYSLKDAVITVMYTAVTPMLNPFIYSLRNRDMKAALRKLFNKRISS
How it was run: as §1

OR13J1 (Homo sapiens) = OR13J1 (Homo sapiens) (UniProt Q8NGT2)
How it was run: as §1

OR14A16 (Homo sapiens) = OR14A16 (Homo sapiens) (UniProt Q8NHC5)
How it was run: as §1

OR14C36 (Homo sapiens) = OR14C36 (Homo sapiens) (UniProt Q8NHC7)
How it was run: as §1

OR14K1 (Homo sapiens) = OR14K1 (Homo sapiens) (UniProt Q8NGZ2)
How it was run: as §1

OR14L1 (Homo sapiens) = OR14L1 (Homo sapiens) (UniProt Q8NHC6)
How it was run: as §1

OR1A1 (Pan troglodytes) = OR1A1 (Pan troglodytes) (UniProt Q9TUA7)
How it was run: as §1

OR1A1 A106G = system: OR1A1 A106G
How it was run: as §1

OR1A1 A106T = system: OR1A1 A106T
How it was run: as §1

OR1A1 D111A T280A = system: OR1A1 D111A T280A
How it was run: as §1

OR1A1 D111A = system: OR1A1 D111A
How it was run: as §1

OR1A1 D111S T280A = system: OR1A1 D111S T280A
How it was run: as §1

OR1A1 D111S = system: OR1A1 D111S
How it was run: as §1

OR1A1 G108A G152A I205V = system: OR1A1 G108A G152A I205V
How it was run: as §1

OR1A1 G108A G152A = system: OR1A1 G108A G152A
How it was run: as §1

OR1A1 G108A I205V = system: OR1A1 G108A I205V
How it was run: as §1

OR1A1 G108A N109K = system: OR1A1 G108A N109K
How it was run: as §1

OR1A1 G108A = system: OR1A1 G108A
How it was run: as §1

OR1A1 G152A I205V = system: OR1A1 G152A I205V
How it was run: as §1

## CC(C)CCC(=O)O
OR14J1 (Homo sapiens)
  odorant receptor agonist call: inactive
OR1A1 (Homo sapiens)
  odorant receptor agonist call: inactive

## CC12CCC(C1)C(C)(C)C2=O (centres undefined)
OR14J1 (Homo sapiens)
  odorant receptor agonist call: inactive
OR1A1 (Homo sapiens)
  odorant receptor agonist call: inactive

## CCCCCC(C)=O
OR14J1 (Homo sapiens)
  odorant receptor agonist call: inactive
OR1A1 (Homo sapiens)
  odorant receptor agonist call: active

## C=CCSCC=C
OR14J1 (Homo sapiens)
  odorant receptor agonist call: inactive
OR1A1 (Homo sapiens)
  odorant receptor agonist call: inactive

## CC12C=CCC1C1CCC3=CC(=O)CCC3(C)C1CC2 (centres undefined)
OR14J1 (Homo sapiens)
  odorant receptor agonist call: inactive
OR1A1 (Homo sapiens)
  odorant receptor agonist call: inactive

## CC(C)(C)c1ccc(CCC=O)cc1
OR14J1 (Homo sapiens)
  odorant receptor agonist call: inactive
OR1A1 (Homo sapiens)
  odorant receptor agonist call: inactive

## CC(=O)OCC=C(C)CCC=C(C)C
OR14J1 (Homo sapiens)
  odorant receptor agonist call: inactive
OR1A1 (Homo sapiens)
  odorant receptor agonist call: inactive

## CCCCCCCC=CC=O
OR14J1 (Homo sapiens)
  odorant receptor agonist call: inactive
OR1A1 (Homo sapiens)
  odorant receptor agonist call: inactive

## CC=Cc1ccc(O)c(OC)c1
OR14J1 (Homo sapiens)
  odorant receptor agonist call: inactive

## CC12C=CCC1C1CCC3CC(=O)CCC3(C)C1CC2 (centres undefined)
OR13J1 (Homo sapiens)
  odorant receptor agonist call: inactive
OR14A16 (Homo sapiens)
  odorant receptor agonist call: inactive
OR14C36 (Homo sapiens)
  odorant receptor agonist call: inactive
OR14J1 (Homo sapiens)
  odorant receptor agonist call: inactive
OR14K1 (Homo sapiens)
  odorant receptor agonist call: inactive
OR14L1 (Homo sapiens)
  odorant receptor agonist call: inactive
OR1A1 (Homo sapiens)
  odorant receptor agonist call: inactive

## COc1ccccc1O
OR14J1 (Homo sapiens)
  odorant receptor agonist call: inactive
OR1A1 (Homo sapiens)
  odorant receptor agonist call: inactive

## CCCC(=O)O
OR14J1 (Homo sapiens)
  odorant receptor agonist call: inactive
OR1A1 (Homo sapiens)
  odorant receptor agonist call: inactive

## CC1=CCC(C(C)(C)O)CC1 (centres undefined)
OR14J1 (Homo sapiens)
  odorant receptor agonist call: inactive
OR1A1 (Homo sapiens)
  odorant receptor agonist call: inactive

## CCCCCCCCCCC=O
OR14J1 (Homo sapiens)
  odorant receptor agonist call: inactive
OR1A1 (Homo sapiens)
  odorant receptor agonist call: inactive

## CC(C)C=O
OR14J1 (Homo sapiens)
  odorant receptor agonist call: inactive
OR1A1 (Homo sapiens)
  odorant receptor agonist call: inactive

## CCC1(O)C2(C)CCC(C2)C1(C)C (centres undefined)
OR14J1 (Homo sapiens)
  odorant receptor agonist call: inactive
OR1A1 (Homo sapiens)
  odorant receptor agonist call: inactive

## CCCCCCOC(=O)CCC
OR14J1 (Homo sapiens)
  odorant receptor agonist call: inactive
OR1A1 (Homo sapiens)
  odorant receptor agonist call: inactive

## CC(C)C(=O)O
OR14J1 (Homo sapiens)
  odorant receptor agonist call: inactive
OR1A1 (Homo sapiens)
  odorant receptor agonist call: inactive

## CCCCCCCOC(C)=O
OR14J1 (Homo sapiens)
  odorant receptor agonist call: inactive
OR1A1 (Homo sapiens)
  odorant receptor agonist call: inactive

## CCCCCCCCOC(C)=O
OR14J1 (Homo sapiens)
  odorant receptor agonist call: inactive
OR1A1 (Homo sapiens)
  odorant receptor agonist call: active

## O=C1CCCCCCCCCCCCCCO1
OR14J1 (Homo sapiens)
  odorant receptor agonist call: inactive
OR1A1 (Homo sapiens)
  odorant receptor agonist call: inactive

## CCCCCC(=O)O
OR14J1 (Homo sapiens)
  odorant receptor agonist call: inactive
OR1A1 (Homo sapiens)
  odorant receptor agonist call: inactive

## CCC=CCCO
OR14J1 (Homo sapiens)
  odorant receptor agonist call: inactive
OR1A1 (Homo sapiens)
  odorant receptor agonist call: inactive

## CC1COCc2cc3c(cc21)C(C)(C)C(C)C3(C)C (centres undefined)
OR14J1 (Homo sapiens)
  odorant receptor agonist call: active
OR1A1 (Homo sapiens)
  odorant receptor agonist call: active

## CC(C)=CCCC(C)=CC=O
OR14J1 (Homo sapiens)
  odorant receptor agonist call: inactive
OR1A1 (Homo sapiens)
  odorant receptor agonist call: active

## CCCCO
OR14J1 (Homo sapiens)
  odorant receptor agonist call: inactive
OR1A1 (Homo sapiens)
  odorant receptor agonist call: inactive

## COC(=O)c1ccccc1O
OR14J1 (Homo sapiens)
  odorant receptor agonist call: inactive
OR1A1 (Homo sapiens)
  odorant receptor agonist call: inactive

## CC1CCC(C(C)C)C(O)C1 (centres undefined)
OR14J1 (Homo sapiens)
  odorant receptor agonist call: inactive
OR1A1 (Homo sapiens)
  odorant receptor agonist call: active

## C=CCc1ccc(OC(C)=O)c(OC)c1
OR14J1 (Homo sapiens)
  odorant receptor agonist call: inactive
OR1A1 (Homo sapiens)
  odorant receptor agonist call: inactive

## CC(=O)OC1CC2CCC1(C)C2(C)C (centres undefined)
OR14J1 (Homo sapiens)
  odorant receptor agonist call: inactive
OR1A1 (Homo sapiens)
  odorant receptor agonist call: inactive

## O=C1CCCCCCCCCCCC(=O)OCCO1
OR14J1 (Homo sapiens)
  odorant receptor agonist call: inactive
OR1A1 (Homo sapiens)
  odorant receptor agonist call: inactive

## CCCCCCCC=O
OR14J1 (Homo sapiens)
  odorant receptor agonist call: inactive
OR1A1 (Homo sapiens)
  odorant receptor agonist call: inactive

## CC(=O)C(C)=O
OR14J1 (Homo sapiens)
  odorant receptor agonist call: inactive
OR1A1 (Homo sapiens)
  odorant receptor agonist call: inactive

## c1ccc(Oc2ccccc2)cc1
OR14J1 (Homo sapiens)
  odorant receptor agonist call: inactive
OR1A1 (Homo sapiens)
  odorant receptor agonist call: active

## CC1=NC(C)SC1C (centres undefined)
OR14J1 (Homo sapiens)
  odorant receptor agonist call: inactive
OR1A1 (Homo sapiens)
  odorant receptor agonist call: inactive

## CC(C)CC(=O)O
OR14J1 (Homo sapiens)
  odorant receptor agonist call: inactive
OR1A1 (Homo sapiens)
  odorant receptor agonist call: inactive

## C=CCc1ccc(O)c(OC)c1
OR1A1 (Homo sapiens)
  odorant receptor agonist call: inactive

## COC(=O)c1ccccc1
OR14J1 (Homo sapiens)
  odorant receptor agonist call: inactive
OR1A1 (Homo sapiens)
  odorant receptor agonist call: inactive

## CC(C)(O)CCCC1=CCC(C=O)CC1 (centres undefined)
OR1A1 (Homo sapiens)
  odorant receptor agonist call: inactive

## COc1cc(C)ccc1O
OR14J1 (Homo sapiens)
  odorant receptor agonist call: inactive
OR1A1 (Homo sapiens)
  odorant receptor agonist call: inactive

## C=C(C)C1CC=C(C)C(=O)C1 (centres undefined)
OR1A1 (Homo sapiens)
  odorant receptor agonist call: active
OR1A1 (Pan troglodytes)
  odorant receptor agonist call: inactive
OR1A1 A106G
  odorant receptor agonist call: active
OR1A1 A106T
  odorant receptor agonist call: active
OR1A1 D111A T280A
  odorant receptor agonist call: inactive
OR1A1 D111A
  odorant receptor agonist call: active
OR1A1 D111S T280A
  odorant receptor agonist call: active
OR1A1 D111S
  odorant receptor agonist call: active
OR1A1 G108A G152A I205V
  odorant receptor agonist call: active
OR1A1 G108A G152A
  odorant receptor agonist call: active
OR1A1 G108A I205V
  odorant receptor agonist call: active
OR1A1 G108A N109K
  odorant receptor agonist call: inactive
OR1A1 G108A
  odorant receptor agonist call: active
OR1A1 G152A I205V
  odorant receptor agonist call: active

## CC(=O)OC(C)(C)C1CC=C(C)CC1 (centres undefined)
OR14J1 (Homo sapiens)
  odorant receptor agonist call: inactive
OR1A1 (Homo sapiens)
  odorant receptor agonist call: active

## CC12CCC(CC1)C(C)(C)O2
OR14J1 (Homo sapiens)
  odorant receptor agonist call: inactive
OR1A1 (Homo sapiens)
  odorant receptor agonist call: inactive

## CCCCCCCCC=O
OR1A1 (Homo sapiens)
  odorant receptor agonist call: inactive

## C=CCc1ccc(OC)c(OC)c1
OR14J1 (Homo sapiens)
  odorant receptor agonist call: inactive
OR1A1 (Homo sapiens)
  odorant receptor agonist call: inactive

## CC(=O)c1ccccc1
OR14J1 (Homo sapiens)
  odorant receptor agonist call: inactive
OR1A1 (Homo sapiens)
  odorant receptor agonist call: inactive

## C=CC(C)(O)CCC=C(C)C (centres undefined)
OR14J1 (Homo sapiens)
  odorant receptor agonist call: inactive
OR1A1 (Homo sapiens)
  odorant receptor agonist call: inactive

## O=C1CCCCC1
OR14J1 (Homo sapiens)
  odorant receptor agonist call: inactive
OR1A1 (Homo sapiens)
  odorant receptor agonist call: inactive

## COc1cc(C=O)ccc1O
OR14J1 (Homo sapiens)
  odorant receptor agonist call: inactive
OR1A1 (Homo sapiens)
  odorant receptor agonist call: inactive

## O=CCc1ccccc1
OR14J1 (Homo sapiens)
  odorant receptor agonist call: inactive
OR1A1 (Homo sapiens)
  odorant receptor agonist call: inactive

## CCCCCOC(C)=O
OR14J1 (Homo sapiens)
  odorant receptor agonist call: inactive
OR1A1 (Homo sapiens)
  odorant receptor agonist call: inactive

## c1cnccn1
OR14J1 (Homo sapiens)
  odorant receptor agonist call: inactive
OR1A1 (Homo sapiens)
  odorant receptor agonist call: inactive

## CCCCCCCCCC=O
OR14J1 (Homo sapiens)
  odorant receptor agonist call: inactive
OR1A1 (Homo sapiens)
  odorant receptor agonist call: inactive

Reference: the M2OR odorant receptor database
